According to patent US20250255882A1, “TREATMENT OF CARDIAC CONDITION RELATED COGNITIVE DYSFUNCTION” (The Trustees of Columbia University in the City of New York, priority 2024, published 2025):
At least one structure is not confirmed: it was looked up by name or label, or the drawing left a doubt.

The chains behind the UniProt entries cited, without tags or fusion partners. Where a name states a change or a piece, a line headed by the entry shows the natural chain unless it says otherwise.
UniProt P11716: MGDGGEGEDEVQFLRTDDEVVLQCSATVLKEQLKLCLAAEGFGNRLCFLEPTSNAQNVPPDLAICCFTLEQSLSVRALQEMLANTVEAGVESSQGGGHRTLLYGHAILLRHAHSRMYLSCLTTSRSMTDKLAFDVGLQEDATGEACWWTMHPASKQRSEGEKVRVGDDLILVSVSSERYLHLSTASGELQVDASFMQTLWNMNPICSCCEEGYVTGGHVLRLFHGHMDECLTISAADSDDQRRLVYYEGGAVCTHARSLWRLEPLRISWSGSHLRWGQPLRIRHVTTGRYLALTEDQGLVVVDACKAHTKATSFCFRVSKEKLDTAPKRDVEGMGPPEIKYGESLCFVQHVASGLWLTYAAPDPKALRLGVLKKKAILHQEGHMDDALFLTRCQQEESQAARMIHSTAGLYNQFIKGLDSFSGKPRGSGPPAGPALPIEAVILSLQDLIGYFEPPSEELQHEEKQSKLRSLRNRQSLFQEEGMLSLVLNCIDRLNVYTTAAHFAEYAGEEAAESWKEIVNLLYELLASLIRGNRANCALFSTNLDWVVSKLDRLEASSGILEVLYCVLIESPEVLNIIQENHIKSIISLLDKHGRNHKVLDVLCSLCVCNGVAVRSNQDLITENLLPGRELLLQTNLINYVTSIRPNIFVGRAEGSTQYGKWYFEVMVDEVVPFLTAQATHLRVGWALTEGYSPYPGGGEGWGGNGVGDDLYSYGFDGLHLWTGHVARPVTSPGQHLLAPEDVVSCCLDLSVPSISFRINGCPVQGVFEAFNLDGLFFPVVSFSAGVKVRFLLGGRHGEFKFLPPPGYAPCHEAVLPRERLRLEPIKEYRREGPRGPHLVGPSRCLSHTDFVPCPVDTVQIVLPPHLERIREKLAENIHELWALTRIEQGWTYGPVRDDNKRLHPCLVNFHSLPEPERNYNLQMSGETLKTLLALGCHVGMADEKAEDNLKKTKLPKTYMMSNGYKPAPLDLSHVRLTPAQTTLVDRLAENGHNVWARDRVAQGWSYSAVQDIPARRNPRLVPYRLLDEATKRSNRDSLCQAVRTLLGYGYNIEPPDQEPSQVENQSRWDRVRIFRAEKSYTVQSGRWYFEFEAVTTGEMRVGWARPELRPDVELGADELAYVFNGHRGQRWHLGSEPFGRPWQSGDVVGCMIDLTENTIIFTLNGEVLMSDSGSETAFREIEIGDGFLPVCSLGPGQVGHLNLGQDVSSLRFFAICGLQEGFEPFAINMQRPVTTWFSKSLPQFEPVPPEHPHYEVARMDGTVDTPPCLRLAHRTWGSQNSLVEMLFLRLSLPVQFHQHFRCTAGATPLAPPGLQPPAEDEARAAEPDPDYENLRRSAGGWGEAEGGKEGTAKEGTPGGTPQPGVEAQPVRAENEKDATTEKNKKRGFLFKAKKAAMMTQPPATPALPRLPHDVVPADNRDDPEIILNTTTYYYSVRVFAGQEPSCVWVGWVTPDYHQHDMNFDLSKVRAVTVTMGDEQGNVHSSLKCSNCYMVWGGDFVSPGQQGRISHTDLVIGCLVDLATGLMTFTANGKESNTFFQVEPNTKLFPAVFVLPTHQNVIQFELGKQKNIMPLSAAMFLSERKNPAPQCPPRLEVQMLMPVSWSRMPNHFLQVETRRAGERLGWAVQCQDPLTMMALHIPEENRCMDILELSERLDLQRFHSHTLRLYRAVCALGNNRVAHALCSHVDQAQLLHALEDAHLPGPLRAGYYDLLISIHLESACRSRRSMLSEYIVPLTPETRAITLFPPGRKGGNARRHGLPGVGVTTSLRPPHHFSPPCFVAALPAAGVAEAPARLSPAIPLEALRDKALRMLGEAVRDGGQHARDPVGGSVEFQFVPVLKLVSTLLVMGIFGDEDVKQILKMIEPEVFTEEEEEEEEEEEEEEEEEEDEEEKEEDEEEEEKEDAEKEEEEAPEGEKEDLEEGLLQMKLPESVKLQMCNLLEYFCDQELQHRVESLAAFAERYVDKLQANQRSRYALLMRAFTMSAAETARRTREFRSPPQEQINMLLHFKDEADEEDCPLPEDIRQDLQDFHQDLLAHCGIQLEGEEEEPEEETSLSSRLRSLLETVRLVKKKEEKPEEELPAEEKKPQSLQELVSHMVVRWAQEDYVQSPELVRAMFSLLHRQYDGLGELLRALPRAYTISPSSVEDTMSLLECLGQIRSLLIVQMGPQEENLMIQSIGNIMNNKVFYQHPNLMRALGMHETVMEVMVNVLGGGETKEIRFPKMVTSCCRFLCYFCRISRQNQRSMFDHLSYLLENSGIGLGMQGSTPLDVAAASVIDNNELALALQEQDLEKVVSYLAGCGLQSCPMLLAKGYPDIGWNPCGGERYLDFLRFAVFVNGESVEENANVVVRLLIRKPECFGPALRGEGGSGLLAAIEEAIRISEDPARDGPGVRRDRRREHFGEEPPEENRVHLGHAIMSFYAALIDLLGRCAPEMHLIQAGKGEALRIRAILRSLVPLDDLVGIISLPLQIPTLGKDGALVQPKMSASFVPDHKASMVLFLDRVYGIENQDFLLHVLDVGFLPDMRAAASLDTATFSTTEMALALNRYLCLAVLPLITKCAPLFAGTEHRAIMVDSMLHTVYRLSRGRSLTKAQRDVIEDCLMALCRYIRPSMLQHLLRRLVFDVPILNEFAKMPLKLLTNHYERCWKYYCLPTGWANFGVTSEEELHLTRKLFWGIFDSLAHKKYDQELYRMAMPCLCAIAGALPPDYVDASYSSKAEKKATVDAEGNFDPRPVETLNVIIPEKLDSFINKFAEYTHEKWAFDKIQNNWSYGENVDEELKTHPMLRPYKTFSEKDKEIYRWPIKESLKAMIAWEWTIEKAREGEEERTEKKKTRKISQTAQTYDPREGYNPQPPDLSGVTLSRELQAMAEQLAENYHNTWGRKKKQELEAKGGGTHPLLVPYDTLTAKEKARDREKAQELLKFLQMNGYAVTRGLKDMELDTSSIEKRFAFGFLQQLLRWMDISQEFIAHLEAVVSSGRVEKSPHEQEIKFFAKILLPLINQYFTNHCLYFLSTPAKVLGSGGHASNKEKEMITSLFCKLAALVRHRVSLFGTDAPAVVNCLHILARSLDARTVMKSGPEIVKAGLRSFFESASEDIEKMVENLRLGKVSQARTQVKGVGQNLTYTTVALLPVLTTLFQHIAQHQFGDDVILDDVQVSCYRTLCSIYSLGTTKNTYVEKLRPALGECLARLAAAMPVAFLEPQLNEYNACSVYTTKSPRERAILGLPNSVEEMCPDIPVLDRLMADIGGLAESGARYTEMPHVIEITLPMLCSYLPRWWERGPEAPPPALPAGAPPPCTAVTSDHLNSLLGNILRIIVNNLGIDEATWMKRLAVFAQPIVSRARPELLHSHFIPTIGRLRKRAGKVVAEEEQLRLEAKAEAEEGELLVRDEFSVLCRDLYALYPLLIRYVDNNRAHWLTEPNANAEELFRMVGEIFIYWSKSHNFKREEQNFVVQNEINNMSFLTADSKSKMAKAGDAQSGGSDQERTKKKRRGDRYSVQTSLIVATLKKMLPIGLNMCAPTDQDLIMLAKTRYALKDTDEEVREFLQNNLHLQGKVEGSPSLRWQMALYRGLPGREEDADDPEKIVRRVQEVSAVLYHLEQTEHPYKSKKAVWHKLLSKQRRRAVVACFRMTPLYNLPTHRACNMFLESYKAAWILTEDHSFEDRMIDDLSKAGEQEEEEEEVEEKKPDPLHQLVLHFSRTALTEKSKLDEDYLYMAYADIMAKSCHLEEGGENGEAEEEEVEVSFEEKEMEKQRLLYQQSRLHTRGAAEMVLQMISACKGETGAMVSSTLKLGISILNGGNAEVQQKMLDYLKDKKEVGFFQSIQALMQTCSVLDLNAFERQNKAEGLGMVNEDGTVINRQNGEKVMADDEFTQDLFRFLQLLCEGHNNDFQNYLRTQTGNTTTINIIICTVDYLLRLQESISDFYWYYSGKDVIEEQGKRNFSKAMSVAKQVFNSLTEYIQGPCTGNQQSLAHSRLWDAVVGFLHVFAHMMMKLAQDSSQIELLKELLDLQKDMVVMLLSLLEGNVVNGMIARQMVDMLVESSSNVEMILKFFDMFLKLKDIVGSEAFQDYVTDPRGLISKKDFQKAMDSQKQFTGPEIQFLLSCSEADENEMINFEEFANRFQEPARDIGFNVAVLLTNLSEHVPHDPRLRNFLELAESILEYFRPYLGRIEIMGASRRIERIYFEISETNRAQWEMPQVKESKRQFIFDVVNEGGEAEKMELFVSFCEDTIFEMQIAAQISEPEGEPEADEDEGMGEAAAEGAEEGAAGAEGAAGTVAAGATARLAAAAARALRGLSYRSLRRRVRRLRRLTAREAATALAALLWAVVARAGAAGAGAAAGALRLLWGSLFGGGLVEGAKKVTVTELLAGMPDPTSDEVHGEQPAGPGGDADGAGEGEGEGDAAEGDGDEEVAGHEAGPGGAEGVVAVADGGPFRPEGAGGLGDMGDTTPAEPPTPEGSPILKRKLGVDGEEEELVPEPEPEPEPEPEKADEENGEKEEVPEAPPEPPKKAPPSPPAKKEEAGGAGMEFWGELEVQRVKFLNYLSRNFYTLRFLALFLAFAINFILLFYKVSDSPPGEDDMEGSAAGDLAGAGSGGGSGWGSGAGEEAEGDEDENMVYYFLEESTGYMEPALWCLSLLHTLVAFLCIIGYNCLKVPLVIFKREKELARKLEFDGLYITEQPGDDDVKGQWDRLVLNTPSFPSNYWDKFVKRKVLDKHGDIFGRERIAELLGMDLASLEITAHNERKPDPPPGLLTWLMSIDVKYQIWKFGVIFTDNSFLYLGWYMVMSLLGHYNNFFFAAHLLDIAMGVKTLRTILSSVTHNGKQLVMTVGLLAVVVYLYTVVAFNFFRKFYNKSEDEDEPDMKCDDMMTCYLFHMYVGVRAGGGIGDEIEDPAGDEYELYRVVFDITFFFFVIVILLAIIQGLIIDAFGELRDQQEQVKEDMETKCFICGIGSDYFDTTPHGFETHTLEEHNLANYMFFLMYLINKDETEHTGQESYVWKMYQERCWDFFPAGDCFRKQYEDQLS

Assays:
[1] = test system: SNARE signaling pathway; assay: immunoblots of SNAP25, VAMP8, SYT2 and CPLX3 in hippocampi; assay type: in vivo, mouse; details: hippocampi of treated MI mice
Text: FIGS. 7A-7E illustrate altered synaptic protein expression in heart failure. […] The color map represents fold change of proteins (log 2 scale). […] FIGS. 7B and 7C are immunoblots showing total expression of SNAP25, VAMP8, SYT2 and CPLX3, normalized to GAPDH in the hippocampi of controls (n=4) and individuals with HF (n=9). Individual values are shown with the mean±s.e.m. (t-test *P<0.05, control versus individuals with HF). […] Individual values are shown with the mean #s.e.m. […] Data are derived from biologically independent samples. All statistical tests were two sided.
Based on the proteome data in the setting of defective Ca^2+ regulation, four proteins were selected for further study. These four proteins were from the most enriched synaptic transmission pathways that are regulated by Ca^2+, located near the synaptic membranes, involved in learning and memory process, and involved in neurotransmission as potential downstream signals of leaky RyR2. These selections included synaptosomal-associated protein 25 (SNAP25), vesicle-associated membrane protein 8 (VAMP8), synaptogamin-2 (SYT2) and complexin3 (CPLX3). We analyzed their protein expression levels by immunoblot in individuals with HF, and in SHAM and MI mice with or without each of the aforementioned treatments. […]

[2] = test system: Ca2+-dependent enzymes, Tau and amyloid beta pathway; assay: Alzheimer's disease-like signaling in hippocampal samples; assay type: in vivo, mouse; details: hippocampi of treated MI mice
Text: Abnormal Ca^2+ regulation can contribute to the activation of Ca^2+-dependent enzymes such as AMP-activated protein kinase (AMPK), cyclin-dependent kinase 5 (CDK5) and enhanced calpain activity. Activation of these enzymes in response to elevated cytosolic Ca^2+ levels are upstream signals of both pTau and amyloid deposits in Alzheimer's disease brains and could be a major factor in the CD observed in HF. […] We also observed an increase in p25 expression, the neurotoxic activator of CDK5, which plays an important role in amyloid precursor protein processing in AD.

[3] = molecular target: RyR1 (Oryctolagus cuniculus, UniProt P11716); details: previously identified binding site; cited from earlier work
[4] = test system: mouse model of HF (myocardial infarction, MI); assay: open field test and elevated plus maze (EPM) test; assay type: in vivo; details: MI mice, treated
Text: FIGS. 2A-2G illustrate a mouse model of heart failure (myocardial infarction) that is associated with cognitive dysfunction. […] One-way analysis of variance (ANOVA) was used to compare the difference between the six groups in FIGS. 2B, 2C, 2E and 2F. Tukey's test was used for multiple comparisons; two-way ANOVA was used in FIG. 2D. […] All statistical tests were two sided with the data derived from biologically independent samples.
Because of the complexity of the clinical manifestation of HF patients, the mouse model of HF (myocardial infarction, MI) was used with reduced ejection fraction to evaluate the mechanisms of CD. The open field test and elevated plus maze (EPM) test were used to evaluate the behavioral phenotypes, and spontaneous exploratory activity in the mice. In the open field test, mice were placed at the center of a chamber and allowed to explore for 6 min. […] In the EPM test, MI mice spent […] time in the open arms of the EPM (FIG. 2B) compared to SHAM (0.22±0.04 versus 0.14±0.02; P<0.05). […] As a control, the effects of a Rycal®, ARM036, was studied.

[5] = test system: mitochondria; assay: Ca2+ accumulation and ROS production in isolated mitochondria; assay type: in vivo, mouse; details: treated MI mice
[6] = cited from earlier work

Compound	expression of SNAP25, VAMP8, SYT2 and CPLX3 [1]	changes in AMPK, GSK3B, CaMKII, Tau phosphorylation, p25, BACE1 and βCTF [2]	effect on primed state of leaky channels [3]	abnormal behaviors in open field test (time center versus periphery) and EPM test (time open-arm versus closed-arm) [4]	mitochondrial Ca2+ levels [5]	toxicity [6]
COc1ccc2c(c1)CN(C)CCS2 [S107]	restored the expression of these proteins to the control levels	prevented/attenuated	reverse the primed state of leaky channels toward a fully closed state	prevented	significantly reduced	
Fc1ccc(Cl)cc1-c1nc(Nc2ccncc2)c2nccnc2n1 [SD-208]						cardiac toxicity
